According to patent publication US8734788B2, “Composition and method for treatment of reperfusion injury and tissue damage” (OPSONA Therapeutics Ltd, priority 2007, dated 2014):

Test system: myocardial ischemia/reperfusion (I/R) injury in C57BL6 mice
Experiment: Infarct size after myocardial ischemia/reperfusion in mice (Evans blue/TTC staining)
Format: in vivo
Conditions: 30 min ischemia/24 h reperfusion, n=10
Method: Male C57BL6 mice (8-12 weeks old, 25-30 grams of weight) underwent 30 minutes of ischemia followed by 24 hours of reperfusion.
Experimental compounds were administered 5 minutes prior to reperfusion via the tail vein. […] OPN-301 (OPN301) is a murine IgG1 anti-TLR2 antibody (mouse Toll-like Receptor 2 (TLR2) antibody, clone T2.5, HyCult Biotechnology b.v., Cell Sciences, Canton, USA: catalogue number 1054).
Mice were anesthetized with a mixture of […]™ (N-(1-phenethyl-4-piperidyl)-N-phenyl-propanamide) 0.05 mg/kg, DORMICUM™ (Midazolum, 8-chloro-6-(2-fluorophenyl)-1-methyl-4H-imidazo[1,5-a][1,4]benzodiazepine) 5 mg/kg and DOMITOR™ (medetomidine hydrochlorine) 0.5 mg/kg (intraperitoneal injection). Atropine ((8-methyl-8-azabicyclo[3.2.1]oct-3-yl) 3-hydroxy-2-phenylpropanoate) 0.05 mg/kg was subcutaneously administered before coronary ligation. […]
Infarct Size (IS) is expressed as a percentage of the Area-At-Risk (AAR) and total Left Ventricle (LV). […]
To determine the AAR, the LAD was ligated once again (at the level marked by the suture left in place) and 4% Evans blue dye was injected via the thoracic aorta in a retrograde fashion. […] IS, MR and total LV area were measured using ImageJ software (version 1.34).
All data are expressed as Mean±SD. […]

## trans-1-(4-Hydroxycyclohexyl)-4-(fluorophenyl)-5-(2-methoxypyrimidin-4-yl) imidazole [SB239063]
Table 1, i.v. 5 min prior to reperfusion, mAb and IgG 10 mg/kg, SB239063 0.5 mg/kg
  AAR_LV (Area At Risk as percentage of total Left Ventricle), Mean: 40.3380%
Table 3 (amended, saline control set)
  AAR/LV Mean: 40.8740%
